Reference: patent US20250314643A1, “FLUORESCENT COMPLEXES COMPRISING TWO RHODAMINE DERIVATIVES AND A NUCLEIC ACID MOLECULE” (CENTRE NATIONAL DE LA RECHERCHE SCIENTIFIQUE, priority 2019, published 2025)

Experiment: Fluorescence Correlation Spectroscopy (FCS) analysis of the fluoromodules
Format: physicochemical
Settings: fluorogen 200 nM, aptamer 1 μM

Question: For CN(C)c1ccc2c(-c3ccccc3C(=O)[O-])c3ccc(N(C)C)cc3[o+]c2c1 [Tetramethylrhodamine], which “n (number of emissive species per excitation volume)” value is on record?
Answer: 11.64
